1 substance from patent publication US10434111B2 (THE REGENTS OF THE UNIVERSITY OF CALIFORNIA, priority 2004, dated 2019) can be followed below.

The series is described as follows: general procedure: Fmoc solid-phase peptide synthesis; Fmoc-Cys(Trt)-Wang resin (Novabiochem). Particulars: conjugation step.

As to H-DYKDDDDKC-OH, the conjugation yield amounted to 49%.
